The text below walks through data of the supplement of paper PMC6411743.

Protein sequences, listed by entry. Tags and fused reporters are not part of them. Lines headed by an entry give the natural chain unless they say otherwise; changes in a name come on top.
UniProt O75570: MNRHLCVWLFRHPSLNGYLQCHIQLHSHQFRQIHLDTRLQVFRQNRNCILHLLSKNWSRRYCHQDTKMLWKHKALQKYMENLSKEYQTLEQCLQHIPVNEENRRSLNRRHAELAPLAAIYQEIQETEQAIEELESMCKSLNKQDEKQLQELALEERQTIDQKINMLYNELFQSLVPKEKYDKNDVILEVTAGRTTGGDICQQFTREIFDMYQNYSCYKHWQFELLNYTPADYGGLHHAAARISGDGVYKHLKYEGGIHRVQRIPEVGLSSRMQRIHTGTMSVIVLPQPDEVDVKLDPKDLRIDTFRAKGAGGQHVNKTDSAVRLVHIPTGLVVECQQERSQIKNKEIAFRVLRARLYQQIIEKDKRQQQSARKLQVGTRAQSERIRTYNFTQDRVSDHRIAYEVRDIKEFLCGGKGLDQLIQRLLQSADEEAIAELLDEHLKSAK
UniProt O60762: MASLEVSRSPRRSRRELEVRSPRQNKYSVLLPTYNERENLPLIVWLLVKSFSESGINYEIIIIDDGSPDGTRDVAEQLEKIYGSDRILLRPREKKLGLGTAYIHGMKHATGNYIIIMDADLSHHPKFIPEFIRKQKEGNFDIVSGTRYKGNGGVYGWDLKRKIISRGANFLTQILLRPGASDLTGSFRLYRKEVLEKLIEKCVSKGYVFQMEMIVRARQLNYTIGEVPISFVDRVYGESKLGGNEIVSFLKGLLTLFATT
UniProt O75382: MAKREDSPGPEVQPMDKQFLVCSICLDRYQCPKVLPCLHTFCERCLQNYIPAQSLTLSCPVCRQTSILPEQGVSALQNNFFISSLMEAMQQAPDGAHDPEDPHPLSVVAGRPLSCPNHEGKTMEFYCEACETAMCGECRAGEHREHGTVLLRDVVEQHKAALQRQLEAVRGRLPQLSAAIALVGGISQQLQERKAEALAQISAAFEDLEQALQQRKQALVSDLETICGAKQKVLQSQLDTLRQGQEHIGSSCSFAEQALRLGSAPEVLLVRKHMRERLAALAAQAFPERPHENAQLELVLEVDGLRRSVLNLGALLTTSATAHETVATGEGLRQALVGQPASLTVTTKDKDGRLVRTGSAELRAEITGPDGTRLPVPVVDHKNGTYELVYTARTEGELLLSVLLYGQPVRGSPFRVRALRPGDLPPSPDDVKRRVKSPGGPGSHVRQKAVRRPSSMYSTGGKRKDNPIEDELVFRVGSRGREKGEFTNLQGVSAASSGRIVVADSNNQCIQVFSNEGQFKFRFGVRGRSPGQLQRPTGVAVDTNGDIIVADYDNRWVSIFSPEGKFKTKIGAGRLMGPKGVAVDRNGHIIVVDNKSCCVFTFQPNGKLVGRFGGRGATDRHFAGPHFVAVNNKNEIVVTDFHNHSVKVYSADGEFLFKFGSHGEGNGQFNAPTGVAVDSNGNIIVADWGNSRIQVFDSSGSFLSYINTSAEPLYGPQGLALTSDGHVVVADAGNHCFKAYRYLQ
UniProt O75362: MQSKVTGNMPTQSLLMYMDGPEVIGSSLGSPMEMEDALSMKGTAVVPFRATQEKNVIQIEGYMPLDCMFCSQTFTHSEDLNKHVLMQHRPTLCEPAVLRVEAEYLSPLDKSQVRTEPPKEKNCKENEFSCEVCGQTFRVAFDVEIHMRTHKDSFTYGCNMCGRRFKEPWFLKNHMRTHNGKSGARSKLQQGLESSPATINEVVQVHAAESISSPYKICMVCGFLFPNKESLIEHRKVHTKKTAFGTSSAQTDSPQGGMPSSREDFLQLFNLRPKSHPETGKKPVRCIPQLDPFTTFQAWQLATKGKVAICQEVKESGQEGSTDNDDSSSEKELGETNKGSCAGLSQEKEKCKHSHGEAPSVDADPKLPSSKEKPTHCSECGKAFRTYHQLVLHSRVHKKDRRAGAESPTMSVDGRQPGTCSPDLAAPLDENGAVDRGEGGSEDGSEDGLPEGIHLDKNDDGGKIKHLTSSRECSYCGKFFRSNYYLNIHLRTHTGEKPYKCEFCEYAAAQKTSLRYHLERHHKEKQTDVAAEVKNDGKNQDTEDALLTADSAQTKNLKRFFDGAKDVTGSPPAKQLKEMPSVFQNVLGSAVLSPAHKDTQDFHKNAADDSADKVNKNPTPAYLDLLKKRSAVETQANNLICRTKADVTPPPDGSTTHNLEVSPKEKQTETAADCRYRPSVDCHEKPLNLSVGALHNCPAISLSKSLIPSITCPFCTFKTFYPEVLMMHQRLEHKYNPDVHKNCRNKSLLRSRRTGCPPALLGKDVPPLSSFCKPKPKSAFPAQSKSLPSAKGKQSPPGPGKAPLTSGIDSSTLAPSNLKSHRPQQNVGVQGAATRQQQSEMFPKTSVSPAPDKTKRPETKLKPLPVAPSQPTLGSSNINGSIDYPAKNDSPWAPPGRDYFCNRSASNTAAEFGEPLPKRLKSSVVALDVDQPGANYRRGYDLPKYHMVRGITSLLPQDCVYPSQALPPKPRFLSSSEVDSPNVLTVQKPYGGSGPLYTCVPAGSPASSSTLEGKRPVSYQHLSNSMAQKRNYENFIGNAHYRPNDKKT
UniProt O60506: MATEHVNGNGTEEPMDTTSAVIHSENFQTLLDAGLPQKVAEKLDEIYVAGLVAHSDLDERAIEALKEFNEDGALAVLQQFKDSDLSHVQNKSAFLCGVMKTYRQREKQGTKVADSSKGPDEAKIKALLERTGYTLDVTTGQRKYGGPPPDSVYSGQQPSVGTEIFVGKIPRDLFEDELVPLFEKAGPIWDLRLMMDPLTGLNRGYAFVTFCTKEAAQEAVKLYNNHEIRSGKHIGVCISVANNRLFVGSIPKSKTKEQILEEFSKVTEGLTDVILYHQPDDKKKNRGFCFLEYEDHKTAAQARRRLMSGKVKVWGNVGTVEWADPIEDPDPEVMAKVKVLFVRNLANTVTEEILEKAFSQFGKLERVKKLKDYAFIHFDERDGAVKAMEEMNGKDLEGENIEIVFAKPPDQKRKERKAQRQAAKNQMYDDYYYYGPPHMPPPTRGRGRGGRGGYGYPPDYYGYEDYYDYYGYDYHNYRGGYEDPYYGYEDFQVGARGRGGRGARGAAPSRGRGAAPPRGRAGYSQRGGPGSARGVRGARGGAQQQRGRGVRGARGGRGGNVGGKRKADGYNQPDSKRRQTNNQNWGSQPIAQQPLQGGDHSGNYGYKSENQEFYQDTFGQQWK
UniProt O60711: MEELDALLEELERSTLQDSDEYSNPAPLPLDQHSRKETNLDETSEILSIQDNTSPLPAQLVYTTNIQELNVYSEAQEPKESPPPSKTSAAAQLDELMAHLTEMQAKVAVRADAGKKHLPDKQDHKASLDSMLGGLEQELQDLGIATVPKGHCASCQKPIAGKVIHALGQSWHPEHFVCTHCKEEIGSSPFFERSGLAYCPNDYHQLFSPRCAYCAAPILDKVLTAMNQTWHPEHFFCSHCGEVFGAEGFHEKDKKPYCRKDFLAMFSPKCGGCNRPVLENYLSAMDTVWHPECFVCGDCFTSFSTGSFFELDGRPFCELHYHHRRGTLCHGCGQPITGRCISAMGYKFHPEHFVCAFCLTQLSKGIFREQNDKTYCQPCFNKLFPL
UniProt O94806: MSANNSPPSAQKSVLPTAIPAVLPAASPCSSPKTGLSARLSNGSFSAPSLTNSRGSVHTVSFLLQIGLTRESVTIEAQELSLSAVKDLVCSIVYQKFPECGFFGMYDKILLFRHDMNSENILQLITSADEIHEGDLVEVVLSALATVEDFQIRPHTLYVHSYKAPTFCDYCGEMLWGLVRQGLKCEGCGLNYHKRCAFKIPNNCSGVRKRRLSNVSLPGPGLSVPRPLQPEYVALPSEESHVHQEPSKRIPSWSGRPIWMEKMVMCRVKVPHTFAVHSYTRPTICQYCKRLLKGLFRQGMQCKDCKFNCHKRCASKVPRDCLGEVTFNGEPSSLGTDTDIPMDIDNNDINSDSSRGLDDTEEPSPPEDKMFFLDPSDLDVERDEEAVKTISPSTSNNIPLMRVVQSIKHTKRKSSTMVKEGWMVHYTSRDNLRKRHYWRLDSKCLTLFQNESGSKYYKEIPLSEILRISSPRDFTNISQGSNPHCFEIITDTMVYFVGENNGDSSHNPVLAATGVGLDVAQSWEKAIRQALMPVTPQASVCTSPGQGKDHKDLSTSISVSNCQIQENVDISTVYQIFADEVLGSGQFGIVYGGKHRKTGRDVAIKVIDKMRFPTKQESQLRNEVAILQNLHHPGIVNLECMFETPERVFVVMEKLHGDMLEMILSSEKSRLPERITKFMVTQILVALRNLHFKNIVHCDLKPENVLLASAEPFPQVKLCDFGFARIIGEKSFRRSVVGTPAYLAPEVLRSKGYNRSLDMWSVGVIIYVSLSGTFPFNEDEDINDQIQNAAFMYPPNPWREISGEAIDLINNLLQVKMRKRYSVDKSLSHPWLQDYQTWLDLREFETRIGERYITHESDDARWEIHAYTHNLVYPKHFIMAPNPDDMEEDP
UniProt O94913, whole entry: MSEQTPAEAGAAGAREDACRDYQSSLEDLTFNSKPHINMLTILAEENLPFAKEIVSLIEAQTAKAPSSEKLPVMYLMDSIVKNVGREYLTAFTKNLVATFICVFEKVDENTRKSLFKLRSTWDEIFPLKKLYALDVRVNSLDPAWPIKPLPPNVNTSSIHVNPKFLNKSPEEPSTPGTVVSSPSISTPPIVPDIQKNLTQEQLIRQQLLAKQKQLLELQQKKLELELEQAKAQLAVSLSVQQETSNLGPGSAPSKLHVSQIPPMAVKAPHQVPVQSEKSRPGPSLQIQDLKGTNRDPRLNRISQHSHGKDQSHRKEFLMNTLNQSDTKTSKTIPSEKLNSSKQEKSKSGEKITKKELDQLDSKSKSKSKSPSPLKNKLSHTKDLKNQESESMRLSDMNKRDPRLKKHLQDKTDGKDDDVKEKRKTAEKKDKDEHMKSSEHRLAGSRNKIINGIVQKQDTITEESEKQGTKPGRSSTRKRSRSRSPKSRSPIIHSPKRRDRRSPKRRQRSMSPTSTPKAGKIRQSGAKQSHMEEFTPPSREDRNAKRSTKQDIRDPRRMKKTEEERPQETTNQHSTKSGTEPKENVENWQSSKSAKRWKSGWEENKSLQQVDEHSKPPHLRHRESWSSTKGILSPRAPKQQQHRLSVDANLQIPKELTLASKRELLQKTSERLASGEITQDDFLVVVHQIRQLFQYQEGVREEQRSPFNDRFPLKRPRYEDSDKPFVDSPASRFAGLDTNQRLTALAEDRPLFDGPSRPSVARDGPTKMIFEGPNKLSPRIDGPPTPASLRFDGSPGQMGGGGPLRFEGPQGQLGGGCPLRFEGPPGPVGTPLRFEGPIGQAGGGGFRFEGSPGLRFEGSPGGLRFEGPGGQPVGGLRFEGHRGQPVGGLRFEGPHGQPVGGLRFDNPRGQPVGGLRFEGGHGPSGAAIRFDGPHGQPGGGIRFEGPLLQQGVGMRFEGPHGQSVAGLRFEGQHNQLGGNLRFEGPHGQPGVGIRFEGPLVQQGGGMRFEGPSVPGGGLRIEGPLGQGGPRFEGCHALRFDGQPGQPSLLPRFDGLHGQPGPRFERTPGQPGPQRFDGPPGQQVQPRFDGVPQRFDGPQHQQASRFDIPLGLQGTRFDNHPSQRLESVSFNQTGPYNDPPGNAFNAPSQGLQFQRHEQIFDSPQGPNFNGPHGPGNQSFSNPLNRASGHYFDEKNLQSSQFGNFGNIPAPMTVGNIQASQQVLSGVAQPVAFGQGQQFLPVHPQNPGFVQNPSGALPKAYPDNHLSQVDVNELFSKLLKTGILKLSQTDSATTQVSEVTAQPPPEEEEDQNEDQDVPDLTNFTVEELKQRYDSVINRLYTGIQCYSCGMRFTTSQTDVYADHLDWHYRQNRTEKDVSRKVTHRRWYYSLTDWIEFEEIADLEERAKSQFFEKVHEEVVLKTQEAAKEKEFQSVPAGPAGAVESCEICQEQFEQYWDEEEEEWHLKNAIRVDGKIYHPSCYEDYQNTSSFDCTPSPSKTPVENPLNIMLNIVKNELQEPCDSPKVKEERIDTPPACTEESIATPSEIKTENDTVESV
UniProt O60927: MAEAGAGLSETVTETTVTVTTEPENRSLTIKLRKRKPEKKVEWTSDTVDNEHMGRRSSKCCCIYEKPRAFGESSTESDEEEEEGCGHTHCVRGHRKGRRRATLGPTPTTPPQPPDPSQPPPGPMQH
UniProt O60832: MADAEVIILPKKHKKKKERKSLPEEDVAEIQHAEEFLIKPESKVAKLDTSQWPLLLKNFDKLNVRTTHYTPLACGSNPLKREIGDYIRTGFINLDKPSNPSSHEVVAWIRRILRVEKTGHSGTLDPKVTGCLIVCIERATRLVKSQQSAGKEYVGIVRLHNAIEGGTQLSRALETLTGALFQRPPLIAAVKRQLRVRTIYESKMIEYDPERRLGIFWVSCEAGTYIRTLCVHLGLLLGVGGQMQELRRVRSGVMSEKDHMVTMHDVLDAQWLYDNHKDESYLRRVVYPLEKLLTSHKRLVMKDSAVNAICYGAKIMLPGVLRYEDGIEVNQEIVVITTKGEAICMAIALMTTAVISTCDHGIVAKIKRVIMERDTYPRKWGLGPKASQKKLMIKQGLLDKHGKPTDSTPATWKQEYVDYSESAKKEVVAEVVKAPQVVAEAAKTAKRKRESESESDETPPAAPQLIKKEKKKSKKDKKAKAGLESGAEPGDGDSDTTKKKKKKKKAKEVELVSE

Compound in the experiment: Nc1ncnc2c1ncn2[C@@H]1O[C@H](COP(=O)(O)OP(=O)(O)OP(=O)(O)O)[C@@H](O)[C@H]1O [adenosine triphosphate]
As to the kind of experiment: NP40-soluble protein abundance relative to vehicle (solubility fold change) (ratio); higher = more soluble protein in presence of ATP. In short, it runs like this: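 Values are fold changes against the detergent-processed vehicle, based on vsn-normalised intensities. Jurkat crude lysate was treated at eight concentrations from 0.1 to 10 mM (10 min at room temperature, then 3 min at 37 °C), solubilised with 0.8% NP40 and benzonase, ultracentrifuged and analysed by TMT-labelled LC-MS/MS over three independent experiments.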

± gives the standard deviation of the averaged measurements. The entries are a selection whose mix differs from that of the whole data set.

With MTRF1 (UniProt O75570), the NP40-soluble protein abundance runs as follows: (concentration: 1mM) 0.991 ± 0.053; (concentration: 2mM) 1.03 ± 0.11; (concentration: 4mM) 1.06 ± 0.059; (concentration: 6mM) 1.07 ± 0.056; (concentration: 8mM) 1.02 ± 0.032; (concentration: 10mM) 1.08 ± 0.13.

In the case of UniProt O95298 and related entries, the NP40-soluble protein abundance (concentration: 1mM) worked out at 0.912 ± 0.084; the NP40-soluble protein abundance (concentration: 2mM) amounted to 0.86 ± 0.037; the NP40-soluble protein abundance (concentration: 4mM) amounted to 0.813 ± 0.085; the NP40-soluble protein abundance (concentration: 6mM) was 0.853 ± 0.12; the NP40-soluble protein abundance (concentration: 8mM) stood at 0.896 ± 0.064; the NP40-soluble protein abundance (concentration: 10mM) was 0.756 ± 0.096.

As to UniProt O60762 and related entries, the NP40-soluble protein abundance is, setting by setting: (concentration: 1mM) 1.21 ± 0.19; (concentration: 2mM) 1.13 ± 0.087; (concentration: 4mM) 1.1 ± 0.073; (concentration: 6mM) 0.953 ± 0.066; (concentration: 8mM) 1.14 ± 0.05; (concentration: 10mM) 1.11 ± 0.053.

With UniProt O75382 and related entries, the NP40-soluble protein abundance runs as follows: (concentration: 1mM) 1.11 ± 0.066; (concentration: 2mM) 1.09 ± 0.037; (concentration: 4mM) 1.12 ± 0.075; (concentration: 6mM) 1.18 ± 0.059; (concentration: 8mM) 1.18 ± 0.049; (concentration: 10mM) 1.21 ± 0.11.

On to ZNF217 (UniProt O75362), for which the NP40-soluble protein abundance runs as follows: (concentration: 1mM) 0.97 ± 0.052; (concentration: 2mM) 0.978 ± 0.049; (concentration: 4mM) 0.98 ± 0.038; (concentration: 6mM) 1.03 ± 0.079; (concentration: 8mM) 0.994 ± 0.053; (concentration: 10mM) 1.03 ± 0.043.

In the case of MED26 (UniProt O95402), the NP40-soluble protein abundance runs as follows: (concentration: 1mM) 1.11 ± 0.11; (concentration: 2mM) 1.1 ± 0.08; (concentration: 4mM) 1.14 ± 0.051; (concentration: 6mM) 1.19 ± 0.062; (concentration: 8mM) 1.1 ± 0.039; (concentration: 10mM) 1.17 ± 0.11.

Take UniProt O95163: the NP40-soluble protein abundance reads like this: (concentration: 1mM) 1.07 ± 0.12; (concentration: 2mM) 1.03 ± 0.084; (concentration: 4mM) 1.03 ± 0.088; (concentration: 6mM) 0.966 ± 0.055; (concentration: 8mM) 1.07 ± 0.037; (concentration: 10mM) 1.02 ± 0.049.

As for SH3BGRL (UniProt O75368), the NP40-soluble protein abundance reads like this: (concentration: 1mM) 0.923 ± 0.04; (concentration: 2mM) 0.909 ± 0.025; (concentration: 4mM) 0.863 ± 0.026; (concentration: 6mM) 0.916 ± 0.044; (concentration: 8mM) 0.893 ± 0.012; (concentration: 10mM) 0.859 ± 0.048.

For the target UniProt O60506 and related entries, the NP40-soluble protein abundance by setting is: (concentration: 1mM) 0.946 ± 0.09; (concentration: 2mM) 0.841 ± 0.19; (concentration: 4mM) 0.982 ± 0.059; (concentration: 6mM) 0.921 ± 0.1; (concentration: 8mM) 1.03 ± 0.065; (concentration: 10mM) 0.982 ± 0.059.

Turning to TMCC1 (UniProt O94876), the NP40-soluble protein abundance reads like this: (concentration: 1mM) 1.02 ± 0.13; (concentration: 2mM) 0.907 ± 0.053; (concentration: 4mM) 0.893 ± 0.077; (concentration: 6mM) 0.931 ± 0.013; (concentration: 8mM) 0.971 ± 0.043; (concentration: 10mM) 0.927 ± 0.037.

On to UniProt O60711 and related entries, for which the NP40-soluble protein abundance (concentration: 1mM) worked out at 1.003 ± 0.0041; the NP40-soluble protein abundance (concentration: 2mM) came to 0.994 ± 0.031; the NP40-soluble protein abundance (concentration: 4mM) was 1.01 ± 0.041; the NP40-soluble protein abundance (concentration: 6mM) turned out to be 1.01 ± 0.048; the NP40-soluble protein abundance (concentration: 8mM) amounted to 1.01 ± 0.076; the NP40-soluble protein abundance (concentration: 10mM) was 0.967 ± 0.018.

As to AP1G2 (UniProt O75843), the NP40-soluble protein abundance reads like this: (concentration: 1mM) 1.03 ± 0.057; (concentration: 2mM) 0.972 ± 0.058; (concentration: 4mM) 0.998 ± 0.031; (concentration: 6mM) 0.965 ± 0.057; (concentration: 8mM) 1.02 ± 0.045; (concentration: 10mM) 0.976 ± 0.026.

On to PRKD3 (UniProt O94806), for which the NP40-soluble protein abundance reads like this: (concentration: 1mM) 1.12 ± 0.074; (concentration: 2mM) 0.992 ± 0.14; (concentration: 4mM) 1.03 ± 0.17; (concentration: 6mM) 0.977 ± 0.092; (concentration: 8mM) 0.927 ± 0.00093; (concentration: 10mM) 1.06 ± 0.069.

With UniProt O94913 and related entries, the NP40-soluble protein abundance (concentration: 1mM) was 1.03 ± 0.048; the NP40-soluble protein abundance (concentration: 2mM) is 1.03 ± 0.026; the NP40-soluble protein abundance (concentration: 4mM) turned out to be 1.06 ± 0.031; the NP40-soluble protein abundance (concentration: 6mM) worked out at 1.08 ± 0.018; the NP40-soluble protein abundance (concentration: 8mM) was found to be 1.04 ± 0.022; the NP40-soluble protein abundance (concentration: 10mM) worked out at 1.06 ± 0.02.

PPP1R11 (UniProt O60927): the NP40-soluble protein abundance reads like this: (concentration: 1mM) 0.899 ± 0.091; (concentration: 2mM) 0.969 ± 0.039; (concentration: 4mM) 0.97 ± 0.037; (concentration: 6mM) 0.998 ± 0.091; (concentration: 8mM) 0.941 ± 0.039; (concentration: 10mM) 0.944 ± 0.026.

Regarding PSMG1 (UniProt O95456), the NP40-soluble protein abundance was 0.944 ± 0.089 (concentration: 1mM); 0.953 ± 0.058 (concentration: 2mM); 0.947 ± 0.054 (concentration: 4mM); 0.863 ± 0.088 (concentration: 6mM); 0.954 ± 0.023 (concentration: 8mM); 0.95 ± 0.031 (concentration: 10mM).

On to UBXN7 (UniProt O94888), for which the NP40-soluble protein abundance is, setting by setting: (concentration: 1mM) 0.966 ± 0.046; (concentration: 2mM) 0.933 ± 0.028; (concentration: 4mM) 0.917 ± 0.012; (concentration: 6mM) 0.925 ± 0.027; (concentration: 8mM) 0.927 ± 0.019; (concentration: 10mM) 0.913 ± 0.01.

UniProt O94762 and related entries: the NP40-soluble protein abundance (concentration: 1mM) came out at 1.01 ± 0.047; the NP40-soluble protein abundance (concentration: 2mM) worked out at 1.01 ± 0.052; the NP40-soluble protein abundance (concentration: 4mM) was found to be 1.02 ± 0.043; the NP40-soluble protein abundance (concentration: 6mM) came to 1.02 ± 0.036; the NP40-soluble protein abundance (concentration: 8mM) worked out at 1.03 ± 0.034; the NP40-soluble protein abundance (concentration: 10mM) was 1.04 ± 0.038.

Consider DKC1 (UniProt O60832), for which the NP40-soluble protein abundance by setting is: (concentration: 1mM) 1.09 ± 0.1; (concentration: 2mM) 1.09 ± 0.029; (concentration: 4mM) 1.16 ± 0.053; (concentration: 6mM) 1.24 ± 0.065; (concentration: 8mM) 1.43 ± 0.031; (concentration: 10mM) 1.6 ± 0.1.
